Assay results reported in PubChem BioAssay AID485349 (National Center for Advancing Translational Sciences (NCATS), 2010).
The campaign covered roughly 320,000 compounds. About 620 (0.19%) were called active. The inconclusive results got no clear call from the source; some entries with a clear call stand among them for comparison. Calls come from the whole dose curve; as a rule, active = well fitted activation curve with a large enough effect; inconclusive = small, poorly fitted or top-dose-only effect; inactive = no such curve, though single readings can be large or run the other way. Where the call is inconclusive, the potency comes from a doubtful curve fit.

Assay: qHTS Assay for Identifying a Potential Treatment of Ataxia-Telangiectasia; note: nearly all actives have a fitted effect of over 45% in size; for activation: % of control where 0% means no effect
Settings: […] A-T fibroblasts, KAP-1 phosphorylation AlphaLISA, neocarzinostatin DNA damage 30 min before lysis; series mostly up to 57.5 µM; activation: at the top concentration
Excerpt: NIH Chemical Genomics Center [NCGC] NIH Molecular Libraries Probe Centers Network [MLPCN] MLPCN Grant: MH089030-01 Assay Submitter (PI): Wei Zheng and Yosef Shiloh Ataxia-telangiectasia (A-T) is a devastating and progressive disease for which, there is no cure. Although A-T is a multisystem disease, it is stereotyped characterized by its neurological symptoms such as truncal ataxia, due to cerebellar cortical degeneration of the Purkinje and granule cells. Other symptoms of A-T are telangiectasias (dilated blood vessels), primary immunodeficiency, marked sensitivity to ionizing radiation (IR), chromosomal instability and predisposition to cancer. The underlying genetic cause of A-T is null mutations in the ATM (A-T mutated) gene. ATM is a nuclear serine/threonine kinase that functions as a master regulator of the cellular responses to double strand breaks (DSBs) in the DNA. Upon activation by DSBs, ATM phosphorylates a plethora of down stream targets, including KAP-1 on […]. KAP-1 phosphorylation occurs shortly in response to DSBs and mediates global chromatin relaxation, which facilitates DSB repair. To screen for small molecules that will compensate for the loss of ATM in cells derived from A-T patients, we monitored KAP-1 phosphorylation as a readout for ATM-like activity using an AlphaLISA assay.
qHTS Assay Protocol: Step,Parameter,Value,Description 1. Cell Plating, 3 ul, 500 cells/well in OPTI-MEM, 1% FBS, 1% Pen/Strep 2. Incubation, 16-24 hr, 37C, 5% CO2, 95% humidity 3. Library compounds, 23 nl, 76.7 - 0.61uM dilution series final concentration 4. Incubation, 60 min, 37C, 5% CO2, 95% humidity 5. Reagent, 1 ul, 1600 ng/ml NCS in PBS + 0.05% BSA + 0.005% Tween 20 6. Incubation, 30 min, 37C, 5% CO2, 95% humidity 7. Reagent, 1 ul, Premixed detection reagents and lysis buffer 8. Reagent, 1 ul, 0.6% Antifoam A 9. Incubation, 6 hr, 25C, 95% humidity 10. Readout, EnVision, EnVision plate reader. AlphaScreen 1536-well protocol Cells were plated using medium-binding white solid-bottom tissue culture treated Kalypsys plates. Multidrop dispense of 3 uL of […] (hTERT immortalized A-T patient fibroblast cells). Detection reagent and lysis buffer was 3.75nM Rab-a-pKAP1 antibody bound to 75 ng/ul AlphaScreen SA donor bead, 3.75 nM Biot-M-a-KAP1 antibody bound to AlphaLISA protein A acceptor bead, 0.5x protease inhibitor cocktail and 0.25x PerkinElmer lysis buffer. EnVision protocol for 1536-well AlphaScreen read (30ms excitation, 100ms read), about 10 min/plate.
Potency is the fitted concentration of half-maximal effect.

Compound	activation	Potency
Cc1cc(C(=O)CSc2nc3ccccc3c(=O)n2C)c(C)n1Cc1ccc2c(c1)OCO2	inactive: 24.4%	
NS(=O)(=O)c1ccc(N2N=C(c3ccc(Br)cc3)CC2c2ccc(F)cc2)cc1 (stereo not given)		active: 39.8 µM
N#CCC(=O)N/N=C/c1ccc(N2N=C(c3ccccc3)CC2c2ccccc2)cc1 (stereo not given)		active: 31.6 µM
N#C/C(=C/c1ccc(N2CCCCCC2)o1)c1cccc(F)c1		inconclusive: 25.1 µM [activator, partial curve]
Cc1ccc(OCCC(=O)Nc2c(C)n(C)n(-c3ccccc3)c2=O)cc1		inconclusive: 8.91 µM [activator, full curve, poor fit]
COCCCNC(=O)c1c[nH]c2ccc(S(=O)(=O)N(C)c3ccccc3C)cc2c1=O		inconclusive: 3.55 µM [activator, full curve, poor fit]
CCNC(=O)NC(=O)C(C)Oc1ccc(Br)cc1Br (stereo not given)		inconclusive: 2.82 µM [activator, full curve, poor fit]
Cc1ccc(S(=O)(=O)NC(C)(C)CN2CCC(Cc3ccccc3)CC2)cc1		inconclusive: 3.16 µM [activator, partial curve]
Cc1nn(C)cc1C(=O)Nc1ccccc1Br		inconclusive: 39.8 µM [activator, single point]
CCCCNc1c(-c2ccc(SC(C)CC)cc2)nc2cnccn12 (stereo not given)		active: 28.2 µM
CCCCNc1c(-c2ccc(SC(C)CC)cc2)nc2ccccn12 (stereo not given)		active: 22.4 µM
CCCCn1nc(NC(=O)COC)c2cc3cc(OC)ccc3nc21		inconclusive: 39.8 µM [activator, single point]
CCn1c(C)c(C)c2cc(C(=O)NCCN3CCOCC3)ccc21	inactive: -10.8%	
COc1ccc(C(=O)CNc2cccc(F)c2)cc1		inconclusive: 1.26 µM [activator, full curve, poor fit]
Cc1cccc(C(=O)OCC(=O)N(CC(C)C)c2c(N)n(Cc3ccccc3)c(=O)[nH]c2=O)c1C	inactive: 0.983%	
Cc1cc(C)nc(NS(=O)(=O)c2ccc(N)cc2)n1		inconclusive: 39.8 µM [activator, single point]
COc1ccc(C)cc1-n1nnnc1SCC(=O)c1cc(C)n(Cc2ccco2)c1C		inconclusive: 1.26 µM [activator, full curve, poor fit]
C#CCOCCOCCOCCNc1nc(N2CCN(C(=O)CCCCCCCCCCNC(=O)[C@@H](CCSC)n3cc(CCO)nn3)CC2)nc(N2CCN(C(=O)CCCCCCCCCCNC(=O)[C@H](CCSC)n3cc(CCO)nn3)CC2)n1		inconclusive: 35.5 µM [activator, partial curve]
CC1=C(C(=O)OC(C)(C)C)C(c2cccc3ccccc23)NC(=O)N1 (stereo not given)		inconclusive: 3.55 µM [activator, partial curve]
CN(C)C(=O)CN(C)S(=O)(=O)c1ccc(Cl)cc1		inconclusive: 1.12 µM [activator, full curve]
c1ccc(C2CC(c3cccs3)=NN2c2ccccc2)cc1 (stereo not given)		active: 20 µM
CCOC(=O)C1=C(C)NC(=S)N(C(C)=O)C1c1ccc(OC)c(OC)c1 (stereo not given)		inconclusive: 39.8 µM [activator, single point]
CCCc1nc(SCC(=O)Nc2nc3c(s2)CCCC3)c2ccccc2n1	inactive: 5.59%	

Compound	activation	Potency
CC1CCCC(NC(=O)COc2ncnc3ccccc23)C1C (stereo not given)	inactive: 17%	
O=C(Nc1nc2ccccc2s1)c1ccc([N+](=O)[O-])o1	inactive: -5.98%	
COc1ccc(CCNC(=O)COC(=O)c2ncc(Cl)c(Cl)c2Cl)cc1OC		inconclusive: 39.8 µM [activator, single point]
CN(C)S(=O)(=O)c1cccc(C(=O)N=C2N=C3C=CC(Cl)=CN3Cc3ccccc32)c1		active: 0.708 µM
O=C1C=CC(=O)N1c1cccc(-c2ccccc2)c1		inconclusive: 3.55 µM [activator, single point]
NC(=O)CN1C(=O)C(=O)N(Cc2cccc(C(F)(F)F)c2)C1=O		inconclusive: 39.8 µM [activator, single point]
COc1cc2c3nnc(-c4ccc(F)cc4)c-3cn(Cc3ccc(C)cc3)c2cc1OC		inconclusive: 39.8 µM [activator, single point]
CCOC(=O)c1c(CSc2nc(C)cc(C)c2C#N)n(C)c2cc(Br)c(OC(C)=O)cc12	inactive: -0.211%	
COc1ccc2nc(C)cc(Nc3ccc(C(=O)O)cc3)c2c1		active: 10 µM
Fc1ccc(CSc2nnc(-c3cc4c(s3)-c3ccccc3CC4)o2)cc1		inconclusive: 28.2 µM [activator, partial curve]
COc1ccc(S(=O)(=O)N2CCCCCC2)cc1C(=O)OCC(=O)NC1CCS(=O)(=O)C1 (stereo not given)	inactive: 3.18%	
COc1cc(/C=C2\CC(C(C)(C)C)C/C(=C\c3cc(OC)c(OC)c(OC)c3)C2=O)cc(OC)c1OC (stereo not given)	inactive: 6.67%	
O=C(NC12CC3CC(CC(C3)C1)C2)c1ccccc1O		inconclusive: 39.8 µM [activator, single point]
COCCNc1nc(C)cc(-c2cc(C(=O)NC3CCCC3)on2)n1		inconclusive: 39.8 µM [activator, single point]
CC(C)CC(OC(=O)c1nsc(Cl)c1Cl)C(=O)NC1CCCC1 (stereo not given)	inactive: -7.03%	
O=C(Nc1ccccc1-c1nc2ccccc2s1)c1ccco1		inconclusive: 39.8 µM [activator, partial curve]
COC(=O)C1=CN(C(C)c2ccccc2)C=C(C(=O)OC)C1c1cc(OC)c(OC)c(OC)c1 (stereo not given)		active: 7.08 µM
CN(C)Cc1ccccc1Sc1ccccc1Br	inactive: -0.106%	
CCOC(=O)C1=C(C)NC(C)=C(C(=O)OCC)C1C(=O)OCC(=O)N1CCc2ccccc21	inactive: -5.79%	
CCc1nc(NC(C)(C)C)c2cnn(-c3ccccc3)c2n1		inconclusive: 17.8 µM [activator, partial curve]
COc1ccc(C=NC(CO)C(O)c2ccc([N+](=O)[O-])cc2)cc1 (stereo not given)		inconclusive: 3.55 µM [activator, partial curve]
CC(C(=O)Nc1c2c(cc3c1CCC3)CCC2)N1CCCC1 (stereo not given)		inconclusive: 39.8 µM [activator, partial curve, poor fit]

Retrieved by structure from above, two records:
Compound	activation	Potency
COc1ccc(CCNC(=O)COC(=O)c2ncc(Cl)c(Cl)c2Cl)cc1OC		inconclusive: 39.8 µM [activator, single point]
COc1cc(/C=C2\CC(C(C)(C)C)C/C(=C\c3cc(OC)c(OC)c(OC)c3)C2=O)cc(OC)c1OC (stereo not given)	inactive: 6.67%	
